Source: patent publication US8466161B2, “Hydroxamate derivative, a production method for the same, and a pharmaceutical composition comprising the same” (Chong Kun Dang Pharmaceutical Corp., priority 2009, dated 2013)

Tested on: HL60 cell line
Experiment: Inhibitory effect on growth of HL60 cell line (MTT)
Assay type: cell-based
Details: Homo sapiens, HL-60, 72 h, 3 days culture
Experimental: In the culture of HL60 cells, 10% FBS-containing RPMI1640 medium was used Each of test substances was serially diluted in DMSO to a concentration of 10 mg/ml and serially diluted in PBS to a final concentration ranging from 100 μg/ml to 0.03 μg/ml. 20 μl (micro-liter) of each of the serially diluted test substances and 180 μl (micro-liter) of a medium containing 60×10^4 cells/ml were added to a 96-well plate and cultured under conditions of 37° C. and 5% CO2 for 3 days. After completion of the culture, 50 μl (micro-liter) of a solution of 1.25 mg/ml MTT (3-(4,5-dimethylthiazol-2-yl)-2,5-diphenyltetrazolium bromide) in PBS was added to each well of the plate and incubated at 37° C. for 3 hours. The formed formazan crystal was dissolved in 150 μl (micro-liter) of DMSO, and the absorbance at 570 nm was measured.

Work on `O=C(CCCCCCC(=O)Nc1ccccc1)NO` [SAHA, vorinostat, reference compound] yielded an IC50 of 600 to 1000 nM.
